# The supplement of paper PMC10849652
# Sequences of proteins named here, by UniProt entry; tags and fusion partners are left off. A change or cut given only in a name is not applied to a line headed by its entry.
# UniProt Q9NWZ5: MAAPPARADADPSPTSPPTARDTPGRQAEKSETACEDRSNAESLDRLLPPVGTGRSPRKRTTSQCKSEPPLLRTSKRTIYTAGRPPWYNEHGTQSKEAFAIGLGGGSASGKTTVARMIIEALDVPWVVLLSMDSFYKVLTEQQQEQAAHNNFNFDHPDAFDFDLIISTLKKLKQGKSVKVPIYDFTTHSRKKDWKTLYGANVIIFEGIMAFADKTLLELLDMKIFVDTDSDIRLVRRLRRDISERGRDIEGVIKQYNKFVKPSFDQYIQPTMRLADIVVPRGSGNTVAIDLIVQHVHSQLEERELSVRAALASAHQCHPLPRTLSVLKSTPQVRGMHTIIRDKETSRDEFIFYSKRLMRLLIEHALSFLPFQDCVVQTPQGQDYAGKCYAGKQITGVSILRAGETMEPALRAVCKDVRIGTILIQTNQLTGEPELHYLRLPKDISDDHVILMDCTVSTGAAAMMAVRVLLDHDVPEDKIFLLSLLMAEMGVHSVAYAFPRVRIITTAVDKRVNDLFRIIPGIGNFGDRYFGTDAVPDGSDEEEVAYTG
# UniProt Q9P0L0: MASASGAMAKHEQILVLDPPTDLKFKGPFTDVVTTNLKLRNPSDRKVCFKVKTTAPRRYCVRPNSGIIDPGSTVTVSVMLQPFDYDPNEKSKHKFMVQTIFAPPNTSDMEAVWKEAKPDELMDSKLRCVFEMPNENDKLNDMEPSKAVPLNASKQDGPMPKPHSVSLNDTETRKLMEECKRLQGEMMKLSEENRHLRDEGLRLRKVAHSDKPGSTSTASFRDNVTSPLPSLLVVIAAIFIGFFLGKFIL
# UniProt Q9NYH9: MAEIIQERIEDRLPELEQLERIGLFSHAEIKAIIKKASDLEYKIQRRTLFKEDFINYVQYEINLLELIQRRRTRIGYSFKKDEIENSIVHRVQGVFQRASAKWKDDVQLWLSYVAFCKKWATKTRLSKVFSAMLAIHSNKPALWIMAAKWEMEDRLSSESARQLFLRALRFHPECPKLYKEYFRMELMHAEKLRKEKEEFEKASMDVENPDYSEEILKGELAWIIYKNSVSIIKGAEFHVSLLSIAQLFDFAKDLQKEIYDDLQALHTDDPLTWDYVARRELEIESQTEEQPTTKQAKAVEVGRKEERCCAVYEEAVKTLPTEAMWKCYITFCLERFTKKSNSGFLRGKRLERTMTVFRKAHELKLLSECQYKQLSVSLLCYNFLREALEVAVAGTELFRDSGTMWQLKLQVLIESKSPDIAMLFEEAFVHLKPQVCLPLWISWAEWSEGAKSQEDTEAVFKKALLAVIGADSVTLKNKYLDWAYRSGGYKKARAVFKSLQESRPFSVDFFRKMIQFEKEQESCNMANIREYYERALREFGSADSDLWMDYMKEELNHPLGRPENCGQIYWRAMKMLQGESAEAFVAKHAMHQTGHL
# UniProt Q70J99: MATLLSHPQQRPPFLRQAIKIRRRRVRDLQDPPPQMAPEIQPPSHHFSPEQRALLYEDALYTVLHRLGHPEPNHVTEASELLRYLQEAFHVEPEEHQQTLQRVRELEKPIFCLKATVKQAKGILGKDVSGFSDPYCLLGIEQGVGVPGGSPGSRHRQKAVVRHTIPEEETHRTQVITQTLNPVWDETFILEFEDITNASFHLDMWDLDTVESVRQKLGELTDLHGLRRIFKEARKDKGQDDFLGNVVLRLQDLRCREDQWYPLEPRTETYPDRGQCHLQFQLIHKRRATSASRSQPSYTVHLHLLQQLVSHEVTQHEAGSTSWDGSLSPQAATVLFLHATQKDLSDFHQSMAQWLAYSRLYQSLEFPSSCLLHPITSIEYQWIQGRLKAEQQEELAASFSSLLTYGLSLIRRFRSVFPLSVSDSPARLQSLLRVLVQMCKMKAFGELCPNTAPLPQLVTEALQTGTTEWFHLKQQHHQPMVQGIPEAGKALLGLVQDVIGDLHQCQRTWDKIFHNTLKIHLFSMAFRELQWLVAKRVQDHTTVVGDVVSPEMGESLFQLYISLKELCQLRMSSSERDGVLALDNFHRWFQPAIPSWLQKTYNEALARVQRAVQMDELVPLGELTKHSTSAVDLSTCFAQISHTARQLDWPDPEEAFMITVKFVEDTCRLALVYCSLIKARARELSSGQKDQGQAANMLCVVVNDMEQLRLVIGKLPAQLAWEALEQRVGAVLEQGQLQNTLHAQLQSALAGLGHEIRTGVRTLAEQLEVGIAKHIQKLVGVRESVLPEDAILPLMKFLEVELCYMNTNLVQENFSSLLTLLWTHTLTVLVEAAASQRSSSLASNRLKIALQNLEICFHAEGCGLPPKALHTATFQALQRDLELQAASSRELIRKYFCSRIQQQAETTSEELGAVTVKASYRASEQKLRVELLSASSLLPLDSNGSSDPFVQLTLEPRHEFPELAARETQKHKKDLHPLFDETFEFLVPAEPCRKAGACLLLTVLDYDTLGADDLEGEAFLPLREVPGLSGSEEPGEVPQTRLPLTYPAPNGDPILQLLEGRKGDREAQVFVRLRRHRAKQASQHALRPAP
# UniProt P14927: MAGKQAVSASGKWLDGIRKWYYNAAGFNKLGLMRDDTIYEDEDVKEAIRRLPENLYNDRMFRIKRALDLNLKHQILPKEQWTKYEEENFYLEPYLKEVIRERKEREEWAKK
# UniProt P07919: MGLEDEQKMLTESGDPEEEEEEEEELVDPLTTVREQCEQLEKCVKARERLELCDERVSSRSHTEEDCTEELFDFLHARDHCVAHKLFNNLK
# UniProt Q96K76: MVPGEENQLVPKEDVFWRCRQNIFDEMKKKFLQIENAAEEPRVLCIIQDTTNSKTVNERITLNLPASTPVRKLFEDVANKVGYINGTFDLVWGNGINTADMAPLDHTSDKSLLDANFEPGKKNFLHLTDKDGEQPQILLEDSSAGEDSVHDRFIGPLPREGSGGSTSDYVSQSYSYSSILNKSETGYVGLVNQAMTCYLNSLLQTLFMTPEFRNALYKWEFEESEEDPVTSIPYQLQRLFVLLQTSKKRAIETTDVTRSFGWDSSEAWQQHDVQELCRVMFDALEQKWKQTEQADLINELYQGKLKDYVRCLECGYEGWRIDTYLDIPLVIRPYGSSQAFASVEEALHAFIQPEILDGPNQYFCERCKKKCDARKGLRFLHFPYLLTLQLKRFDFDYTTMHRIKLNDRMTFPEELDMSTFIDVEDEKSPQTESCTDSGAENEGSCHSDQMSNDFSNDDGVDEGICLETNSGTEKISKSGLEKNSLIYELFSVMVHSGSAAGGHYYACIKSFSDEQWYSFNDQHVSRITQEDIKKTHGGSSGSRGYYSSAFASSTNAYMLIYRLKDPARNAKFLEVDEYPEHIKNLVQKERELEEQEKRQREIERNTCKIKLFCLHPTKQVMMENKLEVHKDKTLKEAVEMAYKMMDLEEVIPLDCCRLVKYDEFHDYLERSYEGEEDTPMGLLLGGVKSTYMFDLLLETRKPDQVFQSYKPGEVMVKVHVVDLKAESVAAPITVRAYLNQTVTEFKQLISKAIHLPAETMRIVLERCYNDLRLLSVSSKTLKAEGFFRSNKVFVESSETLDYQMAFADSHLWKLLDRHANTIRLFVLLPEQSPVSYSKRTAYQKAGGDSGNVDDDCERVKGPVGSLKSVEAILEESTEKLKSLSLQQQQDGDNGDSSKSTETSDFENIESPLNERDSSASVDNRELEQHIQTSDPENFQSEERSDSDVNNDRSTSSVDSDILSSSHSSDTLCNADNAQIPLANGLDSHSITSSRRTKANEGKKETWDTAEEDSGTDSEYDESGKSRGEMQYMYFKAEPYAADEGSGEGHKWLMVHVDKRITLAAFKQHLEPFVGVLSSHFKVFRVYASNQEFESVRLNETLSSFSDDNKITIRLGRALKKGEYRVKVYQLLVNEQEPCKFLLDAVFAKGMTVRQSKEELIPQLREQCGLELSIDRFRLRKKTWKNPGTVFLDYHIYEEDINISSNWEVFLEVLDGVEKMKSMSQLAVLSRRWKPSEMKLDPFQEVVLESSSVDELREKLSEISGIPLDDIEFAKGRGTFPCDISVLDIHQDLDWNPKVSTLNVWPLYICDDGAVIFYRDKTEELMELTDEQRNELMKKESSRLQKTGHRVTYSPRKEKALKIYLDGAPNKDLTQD
# UniProt A0JNW5: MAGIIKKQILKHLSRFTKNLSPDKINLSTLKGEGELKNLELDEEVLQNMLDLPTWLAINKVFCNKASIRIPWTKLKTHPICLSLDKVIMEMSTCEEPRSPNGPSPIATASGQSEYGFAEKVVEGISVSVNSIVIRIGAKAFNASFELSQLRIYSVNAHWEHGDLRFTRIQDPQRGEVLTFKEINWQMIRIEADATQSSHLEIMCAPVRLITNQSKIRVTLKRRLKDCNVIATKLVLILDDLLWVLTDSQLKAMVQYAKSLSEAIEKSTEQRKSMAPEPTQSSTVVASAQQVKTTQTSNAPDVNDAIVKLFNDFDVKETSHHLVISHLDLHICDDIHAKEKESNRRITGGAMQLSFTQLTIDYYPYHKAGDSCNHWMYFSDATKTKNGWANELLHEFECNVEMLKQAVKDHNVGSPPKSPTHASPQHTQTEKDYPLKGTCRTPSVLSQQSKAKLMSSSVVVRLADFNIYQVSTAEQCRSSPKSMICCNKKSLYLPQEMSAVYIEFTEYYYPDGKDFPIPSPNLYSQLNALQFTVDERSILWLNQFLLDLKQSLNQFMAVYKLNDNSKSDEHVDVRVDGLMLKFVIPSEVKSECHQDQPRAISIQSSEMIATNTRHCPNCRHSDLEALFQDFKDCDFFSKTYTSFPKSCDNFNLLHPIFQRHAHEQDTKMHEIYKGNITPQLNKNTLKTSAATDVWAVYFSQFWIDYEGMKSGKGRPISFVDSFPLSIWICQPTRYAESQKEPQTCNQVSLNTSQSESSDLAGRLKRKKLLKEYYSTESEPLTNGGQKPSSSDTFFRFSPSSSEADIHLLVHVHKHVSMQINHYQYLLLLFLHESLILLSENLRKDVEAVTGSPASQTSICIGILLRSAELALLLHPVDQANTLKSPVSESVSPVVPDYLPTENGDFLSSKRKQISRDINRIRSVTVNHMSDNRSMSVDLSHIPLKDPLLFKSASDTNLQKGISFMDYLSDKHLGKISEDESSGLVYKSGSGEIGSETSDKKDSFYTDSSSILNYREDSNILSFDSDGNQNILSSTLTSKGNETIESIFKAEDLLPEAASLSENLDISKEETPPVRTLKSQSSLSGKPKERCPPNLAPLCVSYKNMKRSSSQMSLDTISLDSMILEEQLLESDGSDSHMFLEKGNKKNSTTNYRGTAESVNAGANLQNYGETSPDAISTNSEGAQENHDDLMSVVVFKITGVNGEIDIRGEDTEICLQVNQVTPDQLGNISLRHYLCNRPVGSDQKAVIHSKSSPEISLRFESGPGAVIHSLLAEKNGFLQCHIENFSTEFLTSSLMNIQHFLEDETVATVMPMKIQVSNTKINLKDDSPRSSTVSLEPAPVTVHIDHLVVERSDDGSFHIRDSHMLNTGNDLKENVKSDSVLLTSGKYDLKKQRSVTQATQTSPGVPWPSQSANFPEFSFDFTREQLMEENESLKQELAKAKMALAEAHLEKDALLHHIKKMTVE
# UniProt P51784: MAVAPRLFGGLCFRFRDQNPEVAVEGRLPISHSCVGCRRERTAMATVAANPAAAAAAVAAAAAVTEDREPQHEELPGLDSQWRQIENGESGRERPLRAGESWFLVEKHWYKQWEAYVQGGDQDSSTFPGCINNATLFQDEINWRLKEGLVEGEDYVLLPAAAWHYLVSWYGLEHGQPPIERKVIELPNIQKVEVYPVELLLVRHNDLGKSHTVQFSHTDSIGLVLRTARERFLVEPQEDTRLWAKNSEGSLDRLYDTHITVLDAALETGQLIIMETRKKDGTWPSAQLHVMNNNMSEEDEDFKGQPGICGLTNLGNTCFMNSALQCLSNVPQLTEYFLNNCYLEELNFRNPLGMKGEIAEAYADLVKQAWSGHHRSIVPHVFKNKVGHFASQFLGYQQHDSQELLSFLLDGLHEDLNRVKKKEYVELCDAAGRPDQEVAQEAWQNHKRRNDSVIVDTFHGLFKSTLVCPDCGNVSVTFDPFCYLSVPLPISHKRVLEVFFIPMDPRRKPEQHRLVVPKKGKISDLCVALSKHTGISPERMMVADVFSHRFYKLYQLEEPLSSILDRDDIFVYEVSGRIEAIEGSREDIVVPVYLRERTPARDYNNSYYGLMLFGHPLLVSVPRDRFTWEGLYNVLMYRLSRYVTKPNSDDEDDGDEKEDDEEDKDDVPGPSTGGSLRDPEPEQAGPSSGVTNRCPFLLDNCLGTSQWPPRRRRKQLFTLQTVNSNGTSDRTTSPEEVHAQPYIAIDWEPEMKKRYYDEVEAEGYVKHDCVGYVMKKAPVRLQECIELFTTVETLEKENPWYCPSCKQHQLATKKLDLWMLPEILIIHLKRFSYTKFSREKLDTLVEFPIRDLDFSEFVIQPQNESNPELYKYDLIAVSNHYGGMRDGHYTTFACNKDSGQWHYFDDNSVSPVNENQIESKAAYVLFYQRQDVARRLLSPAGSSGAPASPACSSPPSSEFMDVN
# The other results are listed elsewhere or left out.
# Legend:
# Experiment in all cases: log2 fold change, soluble protein after heating vs DMSO (PISA); higher = thermal stabilisation; K562 lysate, 10 uM; active = over 0.2 and 3.5 SD of the protein, either way, in both replicates (recomputed)
# vemurafenib = compound: CCCS(=O)(=O)Nc1ccc(F)c(C(=O)c2c[nH]c3ncc(-c4ccc(Cl)cc4)cc23)c1F [vemurafenib]
# Procedure, shortened: (§1)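 Values give the log-two fold change in thermal stability against solvent controls, from duplicates. Crude K562 extract at 1 mg/mL protein, made by dounce homogenisation in PBS pH 7.4 with 1 mM MgCl2, was treated with 10 μM compound for 30 min. After 3 min heating across 48°C-58°C, aliquots were pooled, adjusted to 0.5% NP-40 at 4°C and centrifuged at 21,000xg for 90 min. The supernatant was measured by TMTpro 16plex LC-MS/MS with channel sums equalised.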
# [1] = compound: CCCS(=O)(=O)Nc1ccc(F)c(C(=O)c2c[nH]c3ncc(Cl)cc23)c1F
# Procedure, shortened: as §1
# barasertib = compound: CCN(CCCOc1ccc2c(Nc3cc(CC(=O)Nc4cccc(F)c4)[nH]n3)ncnc2c1)CCOP(=O)(O)O [barasertib]
# Procedure, shortened: as §1
# [2] = compound: CC[C@@H]1C(=O)N(C)c2cnc(Nc3ccc(C(=O)NC4CCN(C)CC4)cc3OC)nc2N1C1CCCC1
# Procedure, shortened: as §1
# volasertib = compound: CC[C@@H]1C(=O)N(C)c2cnc(Nc3ccc(C(=O)N[C@H]4CC[C@H](N5CCN(CC6CC6)CC5)CC4)cc3OC)nc2N1C(C)C [volasertib]
# Procedure, shortened: as §1
# [3] = compound: CCn1c(C(=O)N(C2CC2)C2CC2)cc2c3c(ncn3C)c(Nc3cc(C)n(C)n3)nc21
# Procedure, shortened: as §1
# [4] = compound: CCn1cc(-c2ccnc3[nH]c(-c4cccc(CN(C)C)c4)cc23)c(-c2ccc(NC(=O)N(C)C)cc2)n1
# Procedure, shortened: as §1
# [5] = compound: CN1CCC(CNc2ccc3ncc(-c4cccc(OC(F)(F)F)c4)n3n2)CC1
# Procedure, shortened: as §1
# saracatinib = compound: CN1CCN(CCOc2cc(OC3CCOCC3)c3c(Nc4c(Cl)ccc5c4OCO5)ncnc3c2)CC1 [saracatinib]
# Procedure, shortened: as §1
# sotrastaurin = compound: CN1CCN(c2nc(C3=C(c4c[nH]c5ccccc45)C(=O)NC3=O)c3ccccc3n2)CC1 [sotrastaurin]
# Procedure, shortened: as §1
# alvocidib = compound: CN1CC[C@H](c2c(O)cc(O)c3c(=O)cc(-c4ccccc4Cl)oc23)[C@H](O)C1 [alvocidib]
# Procedure, shortened: as §1
# Tubastatin A = compound: CN1CCc2c(c3ccccc3n2Cc2ccc(C(=O)NO)cc2)C1 [Tubastatin A]
# Procedure, shortened: as §1
# [6] = compound: CNC(=O)C1=CC=CC=C1NC2=NC(=NC=C2Cl)NC3=C(C=C(C=C3)N4CCOCC4)OC
# Procedure, shortened: as §1
# defactinib = compound: CNC(=O)c1ccc(Nc2ncc(C(F)(F)F)c(NCc3nccnc3N(C)S(C)(=O)=O)n2)cc1 [defactinib]
# Procedure, shortened: as §1
# [7] = compound: CNc1nc(-c2ccc3c(N)n[nH]c3c2)cc(N2C[C@@H](C(=O)NC3CCCCC3)CC[C@H]2C)n1
# Procedure, shortened: as §1
# encorafenib = compound: COC(=O)N[C@@H](C)CNc1nccc(-c2cn(C(C)C)nc2-c2cc(Cl)cc(NS(C)(=O)=O)c2F)n1 [encorafenib]
# Procedure, shortened: as §1
# [8] = compound: COC(=O)[C@H](CCSC)NC(=O)C1=C(C=C(C=C1)NC[C@H](CS)N)C2=CC=CC=C2
# Procedure, shortened: as §1
# alisertib = compound: COc1cc(Nc2ncc3c(n2)-c2ccc(Cl)cc2C(c2c(F)cccc2OC)=NC3)ccc1C(=O)O [alisertib]
# Procedure, shortened: as §1
# [9] = compound: COc1cc2nc(-c3cc(F)ccc3O)nc(N[C@@H]3CNC[C@H]3C(C)(C)O)c2cc1OC
# Procedure, shortened: as §1
# gefitinib = compound: COc1cc2ncnc(Nc3ccc(F)c(Cl)c3)c2cc1OCCCN1CCOCC1 [gefitinib]
# Procedure, shortened: as §1
Target,log2 fold change (vemurafenib),log2 fold change [1],log2 fold change (barasertib),log2 fold change [2],log2 fold change (volasertib),log2 fold change [3],log2 fold change [4],log2 fold change [5],log2 fold change (saracatinib),log2 fold change (sotrastaurin),log2 fold change (alvocidib),log2 fold change (Tubastatin A),log2 fold change [6],log2 fold change (defactinib),log2 fold change [7],log2 fold change (encorafenib),log2 fold change [8],log2 fold change (alisertib),log2 fold change [9],log2 fold change (gefitinib)
UMPS (UniProt P11172),inactive: -0.059,inactive: 0.015,inactive: 0.015,inactive: -0.062,inactive: -0.032,inactive: 0.034,inactive: 0.013,inactive: -0.043,inactive: 0.009,inactive: 0.014,inactive: 0.026,inactive: -0.009,inactive: 0.002,inactive: 0.024,inactive: -0.021,inactive: -0.017,inactive: 0.021,inactive: -0.014,inactive: 0.004,inactive: -0.036
VDAC1 (UniProt P21796),inactive: 0.003,inactive: -0.005,inactive: -0.034,inactive: 0.056,inactive: 0.038,inactive: -0.023,inactive: -0.002,inactive: 0.024,inactive: 0.011,inactive: 0.012,inactive: 0.017,inactive: 0.042,inactive: 0,inactive: -0.007,inactive: 0.044,inactive: -0.003,inactive: -0.041,inactive: -0.011,inactive: 0.019,inactive: 0.005
UCKL1 (UniProt Q9NWZ5),inactive: 0.005,inactive: -0.055,inactive: 0.016,inactive: -0.028,inactive: 0.003,inactive: 0.03,inactive: -0.064,inactive: 0.058,inactive: 0.045,inactive: 0.026,inactive: 0.059,inactive: -0.159,inactive: -0.015,inactive: 0.018,inactive: -0.025,inactive: 0.004,inactive: 0.054,inactive: 0.058,inactive: -0.015,inactive: -0.031
VAPA (UniProt Q9P0L0),inactive: -0.009,inactive: -0.054,inactive: 0.018,inactive: 0.022,inactive: -0.005,inactive: 0.071,inactive: 0.188,inactive: -0.208,inactive: -0.033,inactive: 0.017,inactive: 0.068,inactive: 0.028,inactive: -0.048,inactive: 0.021,inactive: -0.087,inactive: -0.022,inactive: -0.228,inactive: -0.07,inactive: -0.005,inactive: -0.025
USP10 isoform 2 (UniProt Q14694),inactive: 0.021,inactive: 0.013,inactive: 0.002,inactive: -0.005,inactive: -0.039,inactive: 0.013,inactive: -0.079,inactive: 0,inactive: 0.005,inactive: 0.008,inactive: 0.006,inactive: -0.118,inactive: 0.015,inactive: 0.017,inactive: 0.021,inactive: 0.019,inactive: 0.04,inactive: 0.012,inactive: -0.009,inactive: -0.018
UTP6 (UniProt Q9NYH9),inactive: -0.024,inactive: -0.058,inactive: -0.167,inactive: -0.018,inactive: -0.074,inactive: -0.033,inactive: -0.089,inactive: 0.011,inactive: 0.067,inactive: 0.041,inactive: 0.024,inactive: -0.138,inactive: 0.01,inactive: 0.028,inactive: 0.049,inactive: -0.005,inactive: 0.113,inactive: -0.026,inactive: 0.048,inactive: -0.006
UNC13D (UniProt Q70J99),inactive: 0.039,inactive: 0.027,inactive: 0.024,inactive: -0.073,inactive: -0.083,inactive: 0.012,inactive: 0.026,inactive: -0.015,inactive: 0.05,inactive: -0.022,inactive: 0.015,inactive: -0.117,inactive: 0.014,inactive: 0.026,inactive: -0.035,inactive: 0.059,inactive: 0.054,inactive: -0.005,inactive: 0.001,inactive: -0.034
VAV1 (UniProt P15498),inactive: 0.032,inactive: -0.017,inactive: 0.022,inactive: -0.041,inactive: -0.002,inactive: -0.041,inactive: -0.114,inactive: 0.035,inactive: -0.011,inactive: -0.021,inactive: 0.005,inactive: -0.117,inactive: -0.028,inactive: 0.018,inactive: 0.007,inactive: -0.026,inactive: 0.025,inactive: -0.006,inactive: -0.044,inactive: 0.024
UQCRB (UniProt P14927),inactive: 0.005,inactive: 0.001,inactive: 0.076,inactive: 0.082,inactive: 0.048,inactive: 0.008,inactive: 0.005,inactive: 0.016,inactive: 0.003,inactive: 0.016,inactive: 0,inactive: 0.033,inactive: 0,inactive: 0.036,inactive: 0.046,inactive: -0.042,inactive: -0.028,inactive: -0.009,inactive: 0.003,inactive: 0.001
UQCRH (UniProt P07919),inactive: 0.009,inactive: -0.002,inactive: 0.124,inactive: 0.031,inactive: 0.05,inactive: 0.059,inactive: -0.056,inactive: 0.037,inactive: -0.018,inactive: 0.025,inactive: -0.003,inactive: 0.03,inactive: -0.032,inactive: -0.032,inactive: 0.017,inactive: -0.004,inactive: -0.064,inactive: -0.011,inactive: -0.001,inactive: 0.001
USP34 (UniProt Q70CQ2),inactive: 0.006,inactive: 0.039,inactive: 0.048,inactive: -0.054,inactive: -0.052,inactive: 0.014,inactive: 0.027,inactive: -0.079,inactive: 0.026,inactive: -0.008,inactive: 0.035,inactive: -0.045,inactive: 0.009,inactive: 0.006,inactive: -0.014,inactive: 0.033,inactive: 0.09,inactive: 0,inactive: 0.017,inactive: 0.013
UPF3B (UniProt Q9BZI7),inactive: 0.027,inactive: 0.01,inactive: -0.006,inactive: 0.026,inactive: 0.004,inactive: -0.019,active: -0.231,inactive: 0.031,inactive: 0.005,inactive: -0.019,inactive: -0.105,inactive: -0.001,inactive: 0.023,inactive: -0.015,inactive: 0.011,inactive: 0.011,inactive: 0.049,inactive: 0.021,inactive: -0.021,inactive: -0.038
USP47 isoform 4 (UniProt Q96K76),inactive: -0.02,inactive: 0.014,inactive: 0.006,inactive: -0.049,inactive: -0.016,inactive: 0.022,inactive: 0.022,inactive: -0.032,inactive: -0.005,inactive: 0.012,inactive: 0.022,inactive: -0.057,inactive: 0.006,inactive: 0.006,inactive: 0.015,inactive: 0.011,inactive: 0.044,inactive: 0.003,inactive: 0.002,inactive: 0.002
UHRF1BP1L (UniProt A0JNW5),inactive: 0.006,inactive: 0.027,inactive: 0.028,inactive: 0.081,inactive: -0.018,inactive: -0.021,inactive: -0.08,inactive: -0.002,inactive: -0.001,inactive: 0,inactive: -0.009,inactive: -0.028,inactive: 0.016,inactive: 0.009,inactive: 0.015,inactive: 0.091,inactive: -0.054,inactive: 0.012,inactive: 0.041,inactive: 0.025
VDAC2 isoform 2 (UniProt P45880),inactive: 0.02,inactive: -0.006,inactive: -0.02,inactive: 0.034,inactive: 0.054,inactive: -0.03,inactive: 0.006,inactive: 0.002,inactive: 0,inactive: -0.023,inactive: 0.007,inactive: 0.098,inactive: -0.001,inactive: -0.004,inactive: 0.045,inactive: -0.023,inactive: -0.047,inactive: 0.026,inactive: -0.014,inactive: -0.018
USP11 (UniProt P51784),inactive: 0.034,inactive: 0.022,inactive: 0.024,inactive: -0.103,inactive: -0.08,inactive: -0.004,inactive: -0.057,inactive: -0.04,inactive: 0.022,inactive: 0.02,inactive: -0.007,inactive: -0.129,inactive: -0.013,inactive: -0.008,inactive: -0.03,inactive: 0.023,inactive: 0.09,inactive: -0.019,inactive: -0.007,inactive: 0.034

# For convenience, part of the list above:
Target,log2 fold change (vemurafenib),log2 fold change [1],log2 fold change (barasertib),log2 fold change [2],log2 fold change (volasertib),log2 fold change [3],log2 fold change [4],log2 fold change [5],log2 fold change (saracatinib),log2 fold change (sotrastaurin),log2 fold change (alvocidib),log2 fold change (Tubastatin A),log2 fold change [6],log2 fold change (defactinib),log2 fold change [7],log2 fold change (encorafenib),log2 fold change [8],log2 fold change (alisertib),log2 fold change [9],log2 fold change (gefitinib)
UCKL1 (UniProt Q9NWZ5),inactive: 0.005,inactive: -0.055,inactive: 0.016,inactive: -0.028,inactive: 0.003,inactive: 0.03,inactive: -0.064,inactive: 0.058,inactive: 0.045,inactive: 0.026,inactive: 0.059,inactive: -0.159,inactive: -0.015,inactive: 0.018,inactive: -0.025,inactive: 0.004,inactive: 0.054,inactive: 0.058,inactive: -0.015,inactive: -0.031
VAPA (UniProt Q9P0L0),inactive: -0.009,inactive: -0.054,inactive: 0.018,inactive: 0.022,inactive: -0.005,inactive: 0.071,inactive: 0.188,inactive: -0.208,inactive: -0.033,inactive: 0.017,inactive: 0.068,inactive: 0.028,inactive: -0.048,inactive: 0.021,inactive: -0.087,inactive: -0.022,inactive: -0.228,inactive: -0.07,inactive: -0.005,inactive: -0.025
